This assay in a line: qHTS Assay for Lipid Storage Modulators in Drosophila S3 Cells.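 As to cell number change: cells counted by Cell Tracker Red CMTPX staining in the red channel.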 Particulars: BODIPY lipid droplet fluorescence, 18-24 h; for cell number change: measured here: cell count max response, cells fed with added oleic acid. The method, boiled down: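 Drosophila S3 cells loaded with oleic acid (400 uM, as added) and compounds at several concentrations; lipid droplets imaged by 488-nm laser-scanning cytometry, 500–530 nm intensity and object ratio to cell channel. Percent activity normalized to 20 uM Triacsin C.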

The mark [1] stands for this setting: measured here: lipid fluorescence (Fed channel) AC50, cells fed with added oleic acid.
[2] abbreviates: measured here: cell number channel AC50, cells fed with added oleic acid.

Molecules are shown by their SMILES. This is one part of the list. Further columns of the screen follow, without active or inactive calls. Compounds called inactive in the main read-out are mostly missing here. Words in brackets tell the shape of the fitted curve; partial curves, single points and poor fits give uncertain potencies.

`Cn1c(Cc2cccc3ccccc23)nnc1SCC(=O)N1CCN(c2cccc(Cl)c2)CC1`: the cell number change stood at 12.3%.
Turning to `COC(=O)c1sccc1NC(=O)CSc1ccccc1NC(=O)CNC(C)C`, the cell number change was -41%.
`O=C(Nc1cccc(F)c1)c1ccc2ncsc2c1`: the cell number change is 3.52%. For the same molecule, the concentration at half-maximal activity (AC50) (in general, the concentration at which the activity in the assay is half-maximal) under setting [1] was 0.184 µM [rising, single point].
For the molecule `Cc1ccccc1N1CCN(CCCN2C(=O)C3CCCCN3C2=O)CC1` (stereo unspecified), the cell number change is 3.31%. Also, the AC50 under setting [1] was 18.4 µM [falling, partial curve].
Take `Cc1cnc(C(=O)OCC(=O)NC2CCCCCC2)cn1`: the cell number change was -26.9%.
Regarding `O=C1C=CC(=O)C(C2=C3C(=O)N(CCc4ccccc4)CC(=O)N3CCC2)=C1`, the cell number change is -83%. Moreover, under setting [2], the AC50 is 14.6 µM [falling, partial curve]. The half-maximal activity concentration (AC50) under setting [1] is 14.6 µM [falling, partial curve].
`CN(C)CCCN(Cc1ccccc1)C(=S)Nc1ccc(SC(F)F)cc1`: the cell number change came to 4.19%. Further, under setting [2], the AC50 is 0.411 µM [rising, single point]. In addition, under setting [1], the AC50 was 0.461 µM [rising, single point].
Turning to `O=C(CCc1ccc(O)c(O)c1)N/N=C/c1ccc2c(c1)OCO2`, the cell number change is -40.5%. For the same molecule, under setting [2], the AC50 is 20.6 µM [falling, single point].
For the molecule `O=C(NC(c1ccccc1)c1ccccc1)N1CCN(CCO)CC1`, the cell number change was 9.25%.
As to `COC(=O)c1sccc1NC(=O)c1cnc2cc(C)nn2c1C`, the cell number change was found to be 63.4%.
Consider `COc1ccc(-c2nn(-c3ccccc3)cc2/C=C\C(=O)Nc2ccc(C(=O)O)cc2)cc1`, for which the cell number change came out at 18%. Further, the AC50 under setting [1] was 0.517 µM [rising, single point].
Take `COc1ccc(OCCCC(=O)Nc2ccc(N3CCCCC3)cc2)cc1`: the cell number change is 16.7%. Besides, under setting [2], the AC50 is 0.184 µM [falling, full curve, poor fit]. Further, under setting [1], the half-maximal activity concentration (AC50) is 0.291 µM [falling, partial curve, poor fit].
With `CC(C)(C)c1ccc(OCCC(=O)Nc2cccc(S(=O)(=O)N3CCCC3)c2)cc1`, the cell number change is -24.1%.
Consider `CCn1c(SCC(=O)c2c[nH]c3ccccc23)nnc1-c1cccs1`, for which the concentration at half-maximal activity (AC50) is 1.46 µM [rising, partial curve] under setting [2] and 6.51 µM [rising, partial curve] under setting [1].
Turning to `Cc1ccc(-c2c(NCCc3ccccc3)c(=O)c2=O)cc1`, the AC50 under setting [1] is 23.1 µM [falling, single point].
In the case of `O=C(NC1CCCCC1)c1ccc(-n2cnnn2)cc1`, the concentration at half-maximal activity (AC50) under setting [1] was 0.164 µM [falling, full curve].
For `COc1ccc(C(C)NC(=O)c2ccccc2)cc1` (stereo unspecified), the cell number change was found to be 40.7%. The concentration at half-maximal activity (AC50) under setting [2] was 9.2 µM [rising, partial curve].
For the molecule `C[C@]12C=CC(=O)C=C1CCC1C3CC[C@](O)(C(=O)CO)[C@@]3(C)CC3OC312` (stereo partly specified), the cell number change was -4.48%. Moreover, the AC50 under setting [1] is 0.00461 µM [falling, full curve, poor fit].
Take `CC1CCCN(S(=O)(=O)c2ccc(NC(=O)C3CCN(C(=O)c4ccco4)CC3)cc2)C1` (stereo unspecified): the cell number change is 8.7%.
Regarding `CC(C)COP(=O)(c1ccc(N(C)C)cc1)C(O)c1ccccc1` (stereo unspecified), the cell number change is -20.8%. For the same molecule, under setting [1], the concentration at half-maximal activity (AC50) was 6.51 µM [falling, single point].
For the molecule `COc1ccc(C(=O)Nc2nnc(SCC(=O)NC3CC3)s2)cc1`, the cell number change is 23.9%.
Consider `CCOc1ccc(OCC)c(NC(=O)C2CCN(S(=O)(=O)c3cccnc3)CC2)c1`, for which the cell number change is 11.4%. Moreover, under setting [2], the AC50 was 0.58 µM [rising, full curve]. Moreover, under setting [1], the concentration at half-maximal activity (AC50) is 0.651 µM [rising, full curve].
With `Cc1cccc(C(C#N)c2ccc(Cl)nn2)c1` (stereo unspecified), the cell number change turned out to be 1.17%. Further, under setting [2], the concentration at half-maximal activity (AC50) is 2.31 µM [falling, single point].
On to `CCN(CC)c1nc2c(c(=O)[nH]c(=O)n2C)n1Cc1ccccc1Cl`, for which the cell number change is 36.1%. Moreover, under setting [1], the half-maximal activity concentration (AC50) is 29.1 µM [rising, single point].
Consider `O=C(Cc1cccs1)Nc1ccc(S(=O)(=O)N2CCCC2)cc1`, for which the cell number change is -18%. In addition, under setting [1], the AC50 is 18.4 µM [falling, single point].
Regarding `C/C(CCc1ccco1)=N/NC(=O)CCC(=O)Nc1ccc(Br)cc1`, the cell number change came out at 9.65%. Moreover, under setting [1], the AC50 is 32.6 µM [rising, single point].
Consider `CCOC(=O)C1CCN(C(=O)CN(c2ccc3c(c2)OCO3)S(C)(=O)=O)CC1`, for which the cell number change is -18.7%. The concentration at half-maximal activity (AC50) under setting [2] is 0.00517 µM [falling, full curve].
For `COc1cccc(NC(=O)CN(C)C(=O)CCCNC(=O)c2ccc(Cl)cc2)c1`, the cell number change was -4.81%. For the same molecule, the AC50 under setting [1] is 23.1 µM [rising, single point].
In the case of `COc1cccc(N2CCN(S(=O)(=O)c3ccc4c(c3)NC(=O)CS4)CC2)c1`, the cell number change was -15.4%.
`O=C(COC(=O)c1cc([N+](=O)[O-])ccc1N1CCOCC1)NCCc1ccccc1`: the cell number change amounted to 11%. For the same molecule, under setting [1], the AC50 was 32.6 µM [falling, single point].
Consider `Cc1ccc(C(=O)/C=C/Nc2ccc([N+](=O)[O-])cc2Br)cc1`, for which the cell number change is -4.32%. Further, the AC50 under setting [1] was 29.1 µM [falling, single point].
Regarding `COc1ccc(C(CNC(=O)c2ccc(S(=O)(=O)N3CCCC3)cc2)N(C)C)cc1OC` (stereo unspecified), the cell number change is 35.7%. In addition, the AC50 under setting [2] was 6.51 µM [rising, single point].
Take `O=C(Cn1ccccc1=O)Nc1ccc(Cl)c(S(=O)(=O)N2CCCCC2)c1`: the cell number change came out at 13.7%. Further, under setting [1], the AC50 was 0.731 µM [rising, full curve, poor fit].
Take `Cc1ccc(C(=O)NCc2ccccn2)cc1S(=O)(=O)N1CCCCC1`: the cell number change was -15.6%.
On to `O=C1CC2(CCN(C(=O)COc3ccc(Cl)cc3)CC2)Oc2ccccc21`, for which the AC50 reads like this: under setting [2], 0.366 µM [rising, full curve, poor fit]; under setting [1], 0.184 µM [rising, full curve, poor fit].
Take `COc1cc(NC(=S)Nc2ccccn2)c(OC)cc1Cl`: the cell number change was 7.68%.
As to `COc1ccccc1NC(=O)c1ccc(N2CC3CC(C2)c2cccc(=O)n2C3)c(NC(=O)c2cccnc2)c1` (stereo unspecified), the cell number change was 9.25%.
Turning to `Cc1cc(=O)oc2cc(OCC(O)CN3CCN(c4ccccc4)CC3)ccc12` (stereo unspecified), the AC50 under setting [2] was 1.16 µM [falling, full curve] and the AC50 under setting [1] was 23.1 µM [falling, partial curve].
With `CN(c1ccc(OCC(=O)OCC(=O)Nc2ccccc2F)cc1)S(=O)(=O)c1cccs1`, the cell number change was -8.15%. The concentration at half-maximal activity (AC50) under setting [2] was 6.51 µM [rising, partial curve, poor fit]. Besides, under setting [1], the concentration at half-maximal activity (AC50) is 6.51 µM [rising, partial curve, poor fit].
As to `O=c1c2c(C(F)(F)F)cc(C(F)(F)F)nc2[nH]n1-c1ccccc1`, the cell number change turned out to be 33.1%. Besides, the half-maximal activity concentration (AC50) under setting [2] is 29.1 µM [rising, single point].

The record behind these values is PubChem BioAssay AID2685 (National Center for Advancing Translational Sciences (NCATS), 2010).
